Assay results as given in PubChem BioAssay AID2685 (National Center for Advancing Translational Sciences (NCATS), 2010).
The whole screen tested about 320,000 compounds, of which about 2,100 (0.66%) were called active. The inconclusive results got no clear call from the source; some entries with a clear call stand among them for comparison. Calls follow the shape of the dose curve; as a rule, active = well fitted inhibition curve with a large enough effect in the signal ratio, with a control signal flat (not every such curve was filed as active); inconclusive = small, poorly fitted or top-dose-only effect, or effect the other way, or a change in a side signal; inactive = flat fitted curve, though single readings scatter; the % refers to the signal ratio. Where the call is inconclusive, the potency comes from a doubtful curve fit.

Assay: qHTS Assay for Lipid Storage Modulators in Drosophila S3 Cells
Conditions: BODIPY lipid droplet fluorescence, 18-24 h, cells fed with added oleic acid; lipid storage change, negative = inhibition: at 46.1 µM (top of the series) unless noted
Summary of the method: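 Drosophila S3 cells got compounds at several concentrations plus oleic acid (400 uM solution). Laser-scanning cytometry with 488 nm excitation read lipid droplets at 500-530 nm and cells at 575-640 nm. Percent activity was relative to 20 uM Triacsin C.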
% is scaled to controls: 0 for no effect and ±100 for the full control effect; potency is read from the fitted curve at half-maximal effect.

Row | Compound | Potency | lipid storage change, negative = inhibition
1 | COc1ccc(CCNc2c(C)c(C)nc3ncnn23)cc1 | inconclusive: 2.59 µM [falling, partial curve, poor fit] | 
2 | CC(C)(C)C1N=C(c2ccc3ccccc3c2)OC1=O (centres undefined) | inconclusive: 25.9 µM [activator, single point] | 
3 | CS(=O)(=O)N(CC(=O)N/N=C/c1cccc2c1OCCO2)c1ccccc1Br |  | inconclusive: 4.56%
4 | CCOC(=O)c1c(N=CN(C)C)c(C#N)n2c1CCC2 | inconclusive: 29.1 µM [activator, single point] | 
5 | Cc1c(NC(=O)C2CCCCC2)cc(C(=O)N2CCOCC2)cc1[N+](=O)[O-] | inconclusive: 16.4 µM [rising, single point] | 
6 | O=C(NCc1ccc(F)cc1)c1cc2ccccn2n1 |  | inconclusive: 37.6%
7 | Cc1cccc(OCC(=O)N(Cc2ccccc2)c2c(N)n(Cc3ccccc3)c(=O)[nH]c2=O)c1 | inconclusive: 29.1 µM [activator, single point] | 
8 | O=C(CCC(=O)c1cccs1)OCC(=O)c1ccccc1F |  | inconclusive: -100%
9 | CC(N=C1NS(=O)(=O)c2ccccc21)C(=O)NCc1ccncc1 (centres undefined) |  | inconclusive
10 | COc1ccc(Cc2nnc(SCC(=O)c3cccc([N+](=O)[O-])c3)n2C)cc1 |  | inconclusive: -19.8%
11 | C=C(C)CSc1nc2ncc(Cl)cc2[nH]1 |  | inconclusive: 39.4%
12 | CCOCC(=O)Nc1ncc(S(=O)(=O)c2ccc([N+](=O)[O-])cc2)s1 |  | inconclusive: 18.5% [at 9.22 µM]
13 | COc1ccc(CCN=C(N)NS(=O)(=O)c2ccccc2)cc1OC |  | inconclusive: 43.8%
14 | O=C(Nc1nc2c(F)cc(F)cc2s1)c1ccco1 | inconclusive: 0.82 µM [activator, full curve, poor fit] | 
15 | Cc1cccc(C(=O)NC2CC3CCCC(C2)N3Cc2ccccc2)c1 (centres undefined) |  | inconclusive: 26.4%
16 | O=S(=O)(Nc1cccc(-n2cnnn2)c1)c1cc(Br)ccc1Br | active: 20.6 µM | 
17 | Cc1ccc(NC(=O)c2cc([N+](=O)[O-])ccc2N2CCOCC2)cc1S(=O)(=O)N(C)C |  | inactive: 3.55%
18 | O=C(CN1C(=O)C2CCCCC2C1=O)Nc1nc(-c2ccccn2)cs1 (centres undefined) | inconclusive: 29.1 µM [rising, single point] | 
19 | Cc1ccc(Cn2ccc(O)c(Cc3ccccc3)c2=O)cc1 | inconclusive: 6.51 µM [falling, single point] | 
20 | Cc1ccc(S(=O)(=O)N2CCC(C(=O)OCC(=O)NC3(C#N)CCCCC3)CC2)cc1C |  | inconclusive: 95.9%
21 | CCOc1ccc(-n2c(SCC(=O)NCc3ccco3)nc3c(c2=O)SCC3)cc1 | inconclusive: 9.2 µM [activator, partial curve, poor fit] | 
22 | CCCN(CCC)c1cc(Cl)nc(N)n1 |  | inconclusive: 11.8%
23 | COC(=O)NCC(c1ccc2c(c1)OCO2)N1CCN(c2ccccc2)CC1 (centres undefined) |  | inconclusive: 54.5%
24 | Cc1ccc(SCC(=O)NCCc2ccccc2)cc1 |  | inconclusive: 15.1%
25 | CCNC(=S)Nc1cccc([N+](=O)[O-])c1 |  | inactive: 13.2%

3 compounds out of the list, ordered by heavy-atom count, high to low:
Row | Compound | Potency | lipid storage change, negative = inhibition
18 | O=C(CN1C(=O)C2CCCCC2C1=O)Nc1nc(-c2ccccn2)cs1 (centres undefined) | inconclusive: 29.1 µM [rising, single point] | 
13 | COc1ccc(CCN=C(N)NS(=O)(=O)c2ccccc2)cc1OC |  | inconclusive: 43.8%
14 | O=C(Nc1nc2c(F)cc(F)cc2s1)c1ccco1 | inconclusive: 0.82 µM [activator, full curve, poor fit] | 

Remaining list, next part.

Row | Compound | Potency | lipid storage change, negative = inhibition
26 | O=C(COc1ccc2ccc(=O)oc2c1)NCCCn1ccnc1 | inconclusive: 2.91 µM [activator, single point] | 
27 | CC(=O)N1N=C(c2cccc(O)c2)CC1c1cccs1 (centres undefined) | inconclusive: 2.59 µM [activator, partial curve] | 
28 | O=C(Nc1ccccc1Cl)N1CCn2c(nc3ccccc32)C1 | inconclusive: 16.4 µM [falling, single point] | 
29 | CN1CCc2c(sc(NC(=O)c3cc(Cl)sc3Cl)c2C(N)=O)C1 |  | inconclusive: -28.7%
30 | CO/N=C/c1c(C(=O)OC)nn(-c2ccccc2)c1Cl |  | inconclusive: 12.3%
31 | CCOC(=O)N1CCC(NC(=O)C2=CCN(S(=O)(=O)c3ccc(F)cc3)CC2)CC1 | inconclusive: 0.651 µM [cytotoxic, full curve, poor fit] | 
32 | c1ccc2c(c1)OCc1cn[nH]c1-2 |  | inconclusive: 20.5%
33 | COc1ccc(CC(NC(C)=O)C(=O)N2CCN(C(=O)Nc3cccc(Cl)c3)CC2)cc1OC (centres undefined) |  | inconclusive: 9.69%
34 | CCCCn1c(Nc2ccccc2)nc2ccccc21 | inconclusive: 29.1 µM [rising, single point] | 
35 | O=C(NC1CCCCCC1)C1c2ccccc2C(=O)N1CCCN1CCOCC1 (centres undefined) |  | inconclusive: 33.3%
36 | O=C(O)C1CCN(C(=O)CSc2nc3ccccc3c(=O)n2Cc2ccccc2)CC1 |  | inconclusive: -57.4%
37 | O=C(CN1CCN(S(=O)(=O)c2ccccc2)CC1)NC(=O)NCc1ccco1 | inconclusive: 1.84 µM [activator, partial curve] | 
38 | CCC(=O)Oc1cccc(C(=O)Nc2cccc(NC(=O)c3ccco3)c2)c1 |  | inconclusive: -7.54%
39 | CC(C)CC(NC(=O)C(CC(C)C)NC(=O)OC(C)(C)C)C(=O)O (centres undefined) |  | inconclusive: -42.1%
40 | Cc1ccccc1NC(=S)N1CCN(c2ccccc2)CC1 |  | inconclusive: 14.3%
41 | CC1(c2ccc(OC(F)F)cc2)NC(=O)N(CC(=O)N2CCN(C(=O)c3ccco3)CC2)C1=O (centres undefined) | inconclusive: 0.13 µM [falling, full curve, poor fit] | 
42 | CCCN(Cc1nc(-c2ccc(Cl)cc2)no1)CC1CCCO1 (centres undefined) |  | inconclusive: 3.16%
43 | Cc1nn(C)c(C)c1NC(=O)COc1ccc(Cl)cc1Br |  | inconclusive: 5.62%
44 | O=C(NCCS(=O)(=O)N1CCN(c2ccccc2F)CC1)c1ccc(Br)o1 | inconclusive: 23.1 µM [falling, single point] | 
45 | CCCCOc1ccc(C(=O)N(C)CC(=O)Nc2ccc(C)cc2)cc1 |  | inconclusive: 2.61%
46 | COCn1c(C(O)c2ccccc2)cc2ccccc21 (centres undefined) | inconclusive: 20.6 µM [activator, single point] | 
47 | CC(C)CN(C(=O)COC(=O)/C=C/c1ccccc1)C1CCS(=O)(=O)C1 (centres undefined) |  | inconclusive: 8.06%
48 | CCSC(=Nc1ccccc1)C1=C(O)COC1=O |  | inconclusive: -4.03%
49 | Cc1ccc(NC(=O)Cn2c(CCC(=O)O)ccc2-c2ccc(Cl)cc2)cc1 |  | inconclusive: 17.7%
